According to publication PMC7819943, “Rice protein-binding microarrays: a tool to detect cis-acting elements near promoter regions in rice”:
This is one part of the list.

Sequences of proteins named here, by UniProt entry; tags and fusion partners are left off.
UniProt Q0JBA9, entry or part of it: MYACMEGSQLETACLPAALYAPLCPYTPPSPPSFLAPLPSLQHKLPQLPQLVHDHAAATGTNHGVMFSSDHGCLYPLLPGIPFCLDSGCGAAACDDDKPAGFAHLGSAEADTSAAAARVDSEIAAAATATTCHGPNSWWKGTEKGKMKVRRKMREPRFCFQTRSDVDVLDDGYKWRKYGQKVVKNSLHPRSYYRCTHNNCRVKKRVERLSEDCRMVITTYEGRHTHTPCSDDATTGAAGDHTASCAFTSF

Target: OsWRKY34 (Oryza sativa, UniProt Q0JBA9 1-250)
Test: protein-binding microarray (RPBM); PBS, 2% BSA, 51.3 ng/ul salmon testes DNA, 50 uM zinc acetate, 200 nM TF, 25 C, 1 h; high values mean tight binding
Conditions: protein: recombinant; tags: N-terminal polyhistidine and DsRed monomer fusion (pET32a); label: CyDye5-dUTP incorporated in the synthesized complementary strand; 3' TTTTT single-stranded linker to array surface; dsDNA, one strand shown
Summary of the method: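 Per-feature fluorescence intensity (arbitrary units), read on an Axon 4000B scanner, is the binding signal. Transcription factors carrying an N-terminal polyhistidine tag and DsRed fusion were expressed in E. coli BL21-CodonPlus and purified on Ni–NTA. A custom Agilent array, made double-stranded by primer extension with Cy5-dUTP and blocked with 2% BSA, was incubated with 200 nM protein in PBS, 2% BSA, salmon testes DNA and 50 µM zinc acetate at 25 °C for 1 h and then washed.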

Sequence	binding signal
GAACTCACCTCATCCATTTTTCAATATTGATCATGTCAACCGGAGTCACCTAGTGCAG	10500 fluorescence intensity (a.u.)
ACTGTTGTATGCTATATATTTTTTGTGTGTTGTTGTTTTTCGGAGTCACCTAGTGCAG	14900 fluorescence intensity (a.u.)
TATATACTCCATATGGCTGGATGCATTGCAAAACAATTTACGGAGTCACCTAGTGCAG	8680 fluorescence intensity (a.u.)
TGTAGCATATCCTTTTTGTGCAACCATCCACGCACATGATCGGAGTCACCTAGTGCAG	8480 fluorescence intensity (a.u.)
TCCCTCTCGCTCACATTCATCTCTCGCTCCGTTCGTCCACCGGAGTCACCTAGTGCAG	8900 fluorescence intensity (a.u.)
AAGCGACGACTTCCTCCCCTCCCACACGCATCCCGTCATCCGGAGTCACCTAGTGCAG	8890 fluorescence intensity (a.u.)
AGTTGATCGGTTGATGCGCTGTCTTTGTTGTTTTGTGGAACGGAGTCACCTAGTGCAG	11700 fluorescence intensity (a.u.)
AACTTCGCCGCCTACACGGCGCTCCTCAACCCGCACGACCCGGAGTCACCTAGTGCAG	9170 fluorescence intensity (a.u.)
TACCTGAGTTATTACTGCAAGGGAGGGAGGGATCAAATGCCGGAGTCACCTAGTGCAG	8130 fluorescence intensity (a.u.)
TCCACTTCTGTCTTCCTTGCTGGATTTGTGATCTTGAATTCGGAGTCACCTAGTGCAG	8390 fluorescence intensity (a.u.)
GACCACGGTGTTTACCATAACCAGCCTGCTTATCTCACACCGGAGTCACCTAGTGCAG	8220 fluorescence intensity (a.u.)
GCCCATTGTTGTTTTTTAATGTCAAAACTGTTTTTTTTTTCGGAGTCACCTAGTGCAG	12900 fluorescence intensity (a.u.)
TAAAGTTCCCGCTAGAGTTAAGTTGACCGTTGTGGAGCCCCGGAGTCACCTAGTGCAG	8790 fluorescence intensity (a.u.)
TAAGTTATACCACTTTGTTATTGATGACTTTTTCAGTTGACGGAGTCACCTAGTGCAG	8330 fluorescence intensity (a.u.)
ACTGTGCAATTGATTTTTTTTCGTCCACATTTAATGCTCCCGGAGTCACCTAGTGCAG	8840 fluorescence intensity (a.u.)
CAAGCACACCAGACACCACACCGAGCCCGCCACGTCCACCCGGAGTCACCTAGTGCAG	10300 fluorescence intensity (a.u.)
GTCCTCCGGCCGCCGCTCCCCACCCGCCGCCGCCGCCGCCCGGAGTCACCTAGTGCAG	8860 fluorescence intensity (a.u.)
CTCCAGCTCCGTCCCCGCGCATAATTAATTGCCTCACTAACGGAGTCACCTAGTGCAG	8180 fluorescence intensity (a.u.)
TCATATTCGTGTTGTTTTTTTAATTAATTTAGCTCACAACCGGAGTCACCTAGTGCAG	8880 fluorescence intensity (a.u.)
CCCTACCCGAGCGGCCACACCCATTTCCCTACTCCCACCCCGGAGTCACCTAGTGCAG	8100 fluorescence intensity (a.u.)
ACATGTGGGCTCCACGTGTTTTGTTTAATTTTTTTTTCTGCGGAGTCACCTAGTGCAG	8480 fluorescence intensity (a.u.)
ACCACTCATTTCACTCACTCAACTCTCTCTCACCCTCAACCGGAGTCACCTAGTGCAG	15100 fluorescence intensity (a.u.)
CATCCCCAAGCCTTGTTGTCTGCATGGAGCCATCACAATCCGGAGTCACCTAGTGCAG	10500 fluorescence intensity (a.u.)

7 entries from above, reformatted:

| Sequence | binding signal |
| --- | --- |
| TAAGTTATACCACTTTGTTATTGATGACTTTTTCAGTTGACGGAGTCACCTAGTGCAG | 8330 fluorescence intensity (a.u.) |
| ACTGTGCAATTGATTTTTTTTCGTCCACATTTAATGCTCCCGGAGTCACCTAGTGCAG | 8840 fluorescence intensity (a.u.) |
| CAAGCACACCAGACACCACACCGAGCCCGCCACGTCCACCCGGAGTCACCTAGTGCAG | 10300 fluorescence intensity (a.u.) |
| GTCCTCCGGCCGCCGCTCCCCACCCGCCGCCGCCGCCGCCCGGAGTCACCTAGTGCAG | 8860 fluorescence intensity (a.u.) |
| CTCCAGCTCCGTCCCCGCGCATAATTAATTGCCTCACTAACGGAGTCACCTAGTGCAG | 8180 fluorescence intensity (a.u.) |
| TCATATTCGTGTTGTTTTTTTAATTAATTTAGCTCACAACCGGAGTCACCTAGTGCAG | 8880 fluorescence intensity (a.u.) |
| CCCTACCCGAGCGGCCACACCCATTTCCCTACTCCCACCCCGGAGTCACCTAGTGCAG | 8100 fluorescence intensity (a.u.) |
